Some of the results follow.
Compound: CC1Cc2ccccc2N1C(=O)C1CCCN(C1)C(=O)CCl (mixture of isomers) [TRIM25 ligand 11 (diastereomer mixture)]
Assay: probe-labelled cysteine peptide fold change vs DMSO (competition) (log2 fold change); higher = less target engagement (more negative = stronger competition)
Settings: THP-1, incubation time: 4 h
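Also: competitive chemoproteomic profiling in live THP-1 cells with an iodoacetamide desthiobiotin (IA-DTB) probe, comparing probe-labelled peptide intensities in compound-treated cells against DMSO-treated controls.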

By UniProt entry, the sequences of proteins in these tests, tags left out. Where a name states a change or a piece, a line headed by the entry shows the natural chain unless it says otherwise.
UniProt Q8TDD1, whole entry, looked up: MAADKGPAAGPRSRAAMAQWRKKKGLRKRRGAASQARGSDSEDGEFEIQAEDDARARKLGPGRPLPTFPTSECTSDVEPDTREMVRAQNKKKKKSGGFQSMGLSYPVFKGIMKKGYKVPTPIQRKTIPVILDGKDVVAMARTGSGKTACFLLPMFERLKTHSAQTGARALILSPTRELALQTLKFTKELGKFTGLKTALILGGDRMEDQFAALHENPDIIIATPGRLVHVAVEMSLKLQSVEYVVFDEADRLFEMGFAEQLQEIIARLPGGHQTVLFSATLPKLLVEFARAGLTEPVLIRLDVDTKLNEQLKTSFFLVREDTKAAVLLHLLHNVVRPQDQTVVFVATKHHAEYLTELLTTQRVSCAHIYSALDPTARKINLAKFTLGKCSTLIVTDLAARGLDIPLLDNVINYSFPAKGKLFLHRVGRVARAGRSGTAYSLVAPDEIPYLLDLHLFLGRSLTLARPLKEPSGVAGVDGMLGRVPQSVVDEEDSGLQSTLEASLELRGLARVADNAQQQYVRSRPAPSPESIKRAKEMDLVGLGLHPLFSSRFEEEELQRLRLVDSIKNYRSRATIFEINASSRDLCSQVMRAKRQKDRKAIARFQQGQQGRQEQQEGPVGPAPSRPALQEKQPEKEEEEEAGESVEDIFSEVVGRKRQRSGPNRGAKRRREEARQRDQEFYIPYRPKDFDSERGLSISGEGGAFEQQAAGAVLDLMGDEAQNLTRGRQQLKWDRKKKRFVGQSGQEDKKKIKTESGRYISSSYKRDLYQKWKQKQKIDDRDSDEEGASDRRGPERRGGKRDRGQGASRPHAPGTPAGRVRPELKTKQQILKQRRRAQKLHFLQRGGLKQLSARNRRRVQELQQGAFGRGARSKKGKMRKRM
UniProt Q16531, whole entry, looked up: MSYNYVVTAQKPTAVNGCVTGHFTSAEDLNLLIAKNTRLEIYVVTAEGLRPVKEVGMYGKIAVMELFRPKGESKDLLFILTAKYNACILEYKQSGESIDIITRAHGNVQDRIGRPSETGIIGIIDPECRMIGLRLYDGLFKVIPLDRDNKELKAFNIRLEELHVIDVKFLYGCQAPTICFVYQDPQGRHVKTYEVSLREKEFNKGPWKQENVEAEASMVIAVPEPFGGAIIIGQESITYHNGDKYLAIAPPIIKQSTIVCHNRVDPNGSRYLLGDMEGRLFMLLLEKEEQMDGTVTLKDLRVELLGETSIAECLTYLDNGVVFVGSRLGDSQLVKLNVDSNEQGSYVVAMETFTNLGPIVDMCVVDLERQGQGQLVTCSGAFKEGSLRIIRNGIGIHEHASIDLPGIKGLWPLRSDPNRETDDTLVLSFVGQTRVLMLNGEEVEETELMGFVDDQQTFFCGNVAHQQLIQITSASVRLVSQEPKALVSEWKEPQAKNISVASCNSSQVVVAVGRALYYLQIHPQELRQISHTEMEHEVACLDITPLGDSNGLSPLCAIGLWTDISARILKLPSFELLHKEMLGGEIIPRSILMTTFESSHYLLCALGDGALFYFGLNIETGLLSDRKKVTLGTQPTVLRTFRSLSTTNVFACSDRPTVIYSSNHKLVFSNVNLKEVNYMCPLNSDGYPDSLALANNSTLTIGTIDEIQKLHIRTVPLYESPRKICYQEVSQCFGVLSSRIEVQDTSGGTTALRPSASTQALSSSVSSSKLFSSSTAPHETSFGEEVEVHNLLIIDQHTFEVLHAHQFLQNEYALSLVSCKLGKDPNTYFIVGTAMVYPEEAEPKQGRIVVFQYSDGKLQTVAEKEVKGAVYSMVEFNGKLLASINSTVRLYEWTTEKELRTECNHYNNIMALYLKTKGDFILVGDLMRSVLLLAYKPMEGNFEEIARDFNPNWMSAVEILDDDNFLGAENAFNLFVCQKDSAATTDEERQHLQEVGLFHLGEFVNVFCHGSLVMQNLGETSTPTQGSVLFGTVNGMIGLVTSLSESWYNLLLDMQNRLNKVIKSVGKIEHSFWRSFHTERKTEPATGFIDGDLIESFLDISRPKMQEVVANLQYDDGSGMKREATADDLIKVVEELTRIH
UniProt Q92499: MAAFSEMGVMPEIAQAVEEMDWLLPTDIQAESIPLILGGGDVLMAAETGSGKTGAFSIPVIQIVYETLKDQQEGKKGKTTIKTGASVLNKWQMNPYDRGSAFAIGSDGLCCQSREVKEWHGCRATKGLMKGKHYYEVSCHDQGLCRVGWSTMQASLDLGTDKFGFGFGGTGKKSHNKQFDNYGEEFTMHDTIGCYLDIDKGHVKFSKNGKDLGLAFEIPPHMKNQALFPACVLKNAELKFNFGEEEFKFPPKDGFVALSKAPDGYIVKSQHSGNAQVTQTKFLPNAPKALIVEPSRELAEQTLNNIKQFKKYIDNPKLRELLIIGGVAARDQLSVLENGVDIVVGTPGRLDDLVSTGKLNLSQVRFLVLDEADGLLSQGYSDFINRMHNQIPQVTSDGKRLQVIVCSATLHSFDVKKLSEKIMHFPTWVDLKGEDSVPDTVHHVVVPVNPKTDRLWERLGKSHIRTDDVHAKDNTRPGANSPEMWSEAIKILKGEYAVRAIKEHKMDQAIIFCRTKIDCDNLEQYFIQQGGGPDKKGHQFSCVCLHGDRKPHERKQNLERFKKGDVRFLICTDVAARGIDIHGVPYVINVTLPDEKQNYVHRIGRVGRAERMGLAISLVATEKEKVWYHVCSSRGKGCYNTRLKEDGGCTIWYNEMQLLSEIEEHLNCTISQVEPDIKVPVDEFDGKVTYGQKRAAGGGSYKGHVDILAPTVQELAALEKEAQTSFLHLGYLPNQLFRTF
UniProt Q92841: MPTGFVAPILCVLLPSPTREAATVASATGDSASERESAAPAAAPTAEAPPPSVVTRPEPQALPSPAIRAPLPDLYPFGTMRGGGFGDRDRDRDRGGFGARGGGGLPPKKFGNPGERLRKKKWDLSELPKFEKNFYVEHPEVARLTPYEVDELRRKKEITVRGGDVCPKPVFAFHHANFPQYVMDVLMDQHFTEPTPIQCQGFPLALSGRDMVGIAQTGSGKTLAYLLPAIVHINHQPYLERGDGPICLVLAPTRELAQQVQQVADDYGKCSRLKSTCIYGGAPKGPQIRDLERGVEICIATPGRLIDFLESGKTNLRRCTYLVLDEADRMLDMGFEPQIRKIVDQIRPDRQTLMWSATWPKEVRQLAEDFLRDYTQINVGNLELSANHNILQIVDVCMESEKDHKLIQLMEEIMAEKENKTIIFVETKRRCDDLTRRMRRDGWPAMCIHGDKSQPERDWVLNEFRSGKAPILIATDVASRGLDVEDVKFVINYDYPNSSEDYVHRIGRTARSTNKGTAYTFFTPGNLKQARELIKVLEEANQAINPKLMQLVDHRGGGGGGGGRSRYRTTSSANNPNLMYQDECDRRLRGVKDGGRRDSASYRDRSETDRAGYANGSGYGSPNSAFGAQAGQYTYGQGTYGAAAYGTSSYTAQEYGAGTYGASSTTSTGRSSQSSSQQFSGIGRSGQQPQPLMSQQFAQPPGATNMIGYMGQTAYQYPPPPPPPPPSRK
UniProt O75140: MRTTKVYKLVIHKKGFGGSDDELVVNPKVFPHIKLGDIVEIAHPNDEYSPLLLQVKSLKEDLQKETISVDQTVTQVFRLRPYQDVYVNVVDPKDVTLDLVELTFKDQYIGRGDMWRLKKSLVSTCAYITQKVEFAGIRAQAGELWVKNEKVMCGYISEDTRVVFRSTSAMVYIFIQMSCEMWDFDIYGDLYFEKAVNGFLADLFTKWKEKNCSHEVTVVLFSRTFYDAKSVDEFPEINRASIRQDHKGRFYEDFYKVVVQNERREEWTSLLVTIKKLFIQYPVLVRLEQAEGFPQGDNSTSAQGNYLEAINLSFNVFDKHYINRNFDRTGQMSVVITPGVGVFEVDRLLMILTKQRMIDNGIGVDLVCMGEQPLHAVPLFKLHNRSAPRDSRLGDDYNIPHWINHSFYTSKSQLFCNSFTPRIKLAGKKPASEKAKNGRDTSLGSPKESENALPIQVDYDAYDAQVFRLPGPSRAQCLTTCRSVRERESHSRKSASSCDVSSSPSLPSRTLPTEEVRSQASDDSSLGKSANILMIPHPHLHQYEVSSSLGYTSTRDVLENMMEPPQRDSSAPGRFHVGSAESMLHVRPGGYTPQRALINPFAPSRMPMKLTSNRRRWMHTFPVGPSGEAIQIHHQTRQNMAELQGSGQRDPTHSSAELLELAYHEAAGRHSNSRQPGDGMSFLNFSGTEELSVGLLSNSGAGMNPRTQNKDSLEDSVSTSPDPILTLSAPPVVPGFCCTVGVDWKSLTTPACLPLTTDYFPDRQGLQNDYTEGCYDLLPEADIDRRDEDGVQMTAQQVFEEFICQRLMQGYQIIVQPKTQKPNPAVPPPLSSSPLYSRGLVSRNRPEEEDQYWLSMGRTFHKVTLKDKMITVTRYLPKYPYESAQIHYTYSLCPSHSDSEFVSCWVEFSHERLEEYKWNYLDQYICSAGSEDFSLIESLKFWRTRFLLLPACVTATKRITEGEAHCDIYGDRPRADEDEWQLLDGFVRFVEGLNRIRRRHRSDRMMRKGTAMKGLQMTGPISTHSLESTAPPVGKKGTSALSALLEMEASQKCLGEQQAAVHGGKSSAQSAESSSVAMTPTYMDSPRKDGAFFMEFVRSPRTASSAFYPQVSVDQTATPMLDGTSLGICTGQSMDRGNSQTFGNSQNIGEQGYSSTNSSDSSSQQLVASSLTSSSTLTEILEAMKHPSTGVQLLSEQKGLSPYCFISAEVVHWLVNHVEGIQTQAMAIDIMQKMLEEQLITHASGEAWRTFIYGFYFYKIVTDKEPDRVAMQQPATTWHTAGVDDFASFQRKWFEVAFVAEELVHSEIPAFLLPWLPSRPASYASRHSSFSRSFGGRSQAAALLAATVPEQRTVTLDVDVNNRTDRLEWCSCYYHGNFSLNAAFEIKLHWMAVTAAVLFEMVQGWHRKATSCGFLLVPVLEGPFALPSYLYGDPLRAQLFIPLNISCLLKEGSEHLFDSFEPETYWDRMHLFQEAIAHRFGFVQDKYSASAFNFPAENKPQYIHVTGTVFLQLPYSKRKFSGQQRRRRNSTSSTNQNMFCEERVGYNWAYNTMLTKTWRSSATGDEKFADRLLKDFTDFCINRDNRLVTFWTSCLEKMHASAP
UniProt Q9UJV9: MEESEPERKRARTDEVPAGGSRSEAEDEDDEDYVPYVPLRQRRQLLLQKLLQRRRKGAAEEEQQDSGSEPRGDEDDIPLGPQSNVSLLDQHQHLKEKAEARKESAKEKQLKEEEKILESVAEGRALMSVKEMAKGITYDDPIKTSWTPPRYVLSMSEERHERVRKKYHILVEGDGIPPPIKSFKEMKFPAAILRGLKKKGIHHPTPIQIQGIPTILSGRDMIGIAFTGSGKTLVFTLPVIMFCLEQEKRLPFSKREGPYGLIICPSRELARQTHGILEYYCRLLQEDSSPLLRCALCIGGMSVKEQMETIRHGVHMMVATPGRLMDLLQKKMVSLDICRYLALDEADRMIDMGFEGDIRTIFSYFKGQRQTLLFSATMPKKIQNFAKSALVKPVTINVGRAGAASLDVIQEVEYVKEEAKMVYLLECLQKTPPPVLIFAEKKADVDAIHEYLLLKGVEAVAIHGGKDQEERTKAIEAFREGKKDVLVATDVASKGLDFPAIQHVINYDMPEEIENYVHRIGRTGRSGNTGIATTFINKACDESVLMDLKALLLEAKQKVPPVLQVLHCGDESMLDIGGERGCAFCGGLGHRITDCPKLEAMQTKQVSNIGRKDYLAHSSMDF
UniProt Q9H4E7, whole entry, looked up: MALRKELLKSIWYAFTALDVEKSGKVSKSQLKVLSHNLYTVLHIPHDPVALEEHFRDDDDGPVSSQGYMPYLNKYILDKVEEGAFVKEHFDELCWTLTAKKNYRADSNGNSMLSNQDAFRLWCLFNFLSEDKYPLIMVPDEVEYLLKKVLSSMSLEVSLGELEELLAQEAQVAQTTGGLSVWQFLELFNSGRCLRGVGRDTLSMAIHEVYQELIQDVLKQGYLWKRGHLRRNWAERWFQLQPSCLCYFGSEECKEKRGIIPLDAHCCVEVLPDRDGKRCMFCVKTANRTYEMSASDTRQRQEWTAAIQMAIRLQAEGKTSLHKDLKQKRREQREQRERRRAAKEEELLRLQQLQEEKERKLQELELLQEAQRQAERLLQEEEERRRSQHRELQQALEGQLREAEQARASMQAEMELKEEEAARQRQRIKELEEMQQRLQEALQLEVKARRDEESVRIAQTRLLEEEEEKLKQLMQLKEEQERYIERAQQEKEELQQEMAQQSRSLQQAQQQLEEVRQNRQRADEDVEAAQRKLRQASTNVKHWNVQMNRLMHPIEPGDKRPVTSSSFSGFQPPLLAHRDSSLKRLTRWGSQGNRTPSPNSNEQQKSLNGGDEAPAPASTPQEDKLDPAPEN
UniProt O43583: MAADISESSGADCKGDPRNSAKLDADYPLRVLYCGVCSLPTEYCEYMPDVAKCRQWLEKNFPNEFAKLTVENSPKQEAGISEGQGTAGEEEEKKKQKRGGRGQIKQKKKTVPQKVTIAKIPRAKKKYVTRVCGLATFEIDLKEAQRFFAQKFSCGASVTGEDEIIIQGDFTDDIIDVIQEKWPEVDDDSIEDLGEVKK

Target	probe-labelled cysteine peptide fold change (10 µM)	probe-labelled cysteine peptide fold change (50 µM)
DDX3X_O00571_223_RDLMACAQTGSGK (UniProt O00571)	-0.0404	-0.163
DDX54_Q8TDD1_365_VSCAHIYSALDPTAR (UniProt Q8TDD1)	0.209	0.138
DENND4A_Q7Z401_952_GSADCLPK (UniProt Q7Z401)	-0.0509	-0.0718
DENND3_A2RUS2_61+71_EDCVHFLVLTDVCGNR (UniProt A2RUS2)	0.141	-0.498
DDX20_Q9UHI6_577_EALPVSLPQIPCLSSFK (UniProt Q9UHI6)	-0.0605	-0.0239
DGCR8_Q8WYQ5_352_KHDPPLSSIPCLHYK (UniProt Q8WYQ5)	0.00591	-0.0993
DDX5_P17844_170_TLSYLLPAIVHINHQPFLERGDGPICLVLAPTR (UniProt P17844)	0.109	0.271
DDB1_Q16531_725_KICYQEVSQCFGVLSSR (UniProt Q16531)	-0.0766	-0.201
DDX1_Q92499_513_MDQAIIFCR (UniProt Q92499)	0.0862	0.135
DDX59_Q5T1V6_414_NLPCANVR (UniProt Q5T1V6)	0.0475	0.054
DDX56_Q9NY93_518_KLSSSCR (UniProt Q9NY93)	-0.00876	-0.325
DDX17_Q92841_319_RCTYLVLDEADR (UniProt Q92841)	-0.083	0.0591
DEPDC5_O75140_416_SQLFCNSFTPR (UniProt O75140)	-0.0569	-0.00573
DDX41_Q9UJV9_568_QKVPPVLQVLHCGDESMLDIGGER (UniProt Q9UJV9)	-0.039	-0.143
DENND4A_Q7Z401_1843_STHNCDRPPSTGVMECR (UniProt Q7Z401)	0.0493	-0.342
DEF6_Q9H4E7_279_CMFCVK (UniProt Q9H4E7)	-0.0839	0.143
DDB1_Q16531_128_IGRPSETGIIGIIDPECR (UniProt Q16531)	-0.0106	0.0343
DDX18_Q9NVP1_407_ANATVDGLEQGYVVCPSEKR (UniProt Q9NVP1)	-0.154	-0.0188
DDX17_Q92841_319_CTYLVLDEADRMLDMGFEPQIR (UniProt Q92841)	-0.416	-0.0954
DDB1_Q16531_652_SLSTTNVFACSDRPTVIYSSNHK (UniProt Q16531)	0.282	-0.133

Target	probe-labelled cysteine peptide fold change (10 µM)	probe-labelled cysteine peptide fold change (50 µM)
DEF6_Q9H4E7_94_EHFDELCWTLTAK (UniProt Q9H4E7)	0.0244	0.0187
DDX28_Q9NUL7_360_LHCIMPHVK (UniProt Q9NUL7)	-0.061	0.0889
DDX39A_O00148_164_KNCPHVVVGTPGR (UniProt O00148)	-0.131	-0.0999
DDHD2_O94830_470_ESEFCSSSNTR (UniProt O94830)	-0.156	-0.169
DDX41_Q9UJV9_338_MVSLDICR (UniProt Q9UJV9)	0.142	-0.0542
DDX60_Q8IY21_857_HDALNCQVLITVPACFEILLLAPHR (UniProt Q8IY21)	-0.153	0.221
DDX1_Q92499_631_VWYHVCSSR (UniProt Q92499)	-0.0247	0.0568
DECR2_Q9NUI1_53_HGCHTVIASR (UniProt Q9NUI1)	0.317	0.574
DDX54_Q8TDD1_149_TACFLLPMFER (UniProt Q8TDD1)	-0.107	0.113
DEPDC1B_Q8WUY9_43_SYEHCFTAAEAVDWLHELLR (UniProt Q8WUY9)	0.0671	-0.0514
DDX41_Q9UJV9_568_VPPVLQVLHCGDESMLDIGGER (UniProt Q9UJV9)	0.141	-0.103
DDX5_P17844_354_CDELTR (UniProt P17844)	-0.036	0.0644
DDX54_Q8TDD1_73_KLGPGRPLPTFPTSECTSDVEPDTR (UniProt Q8TDD1)	-0.0758	-0.129
DENND3_A2RUS2_695_DFYNCWK (UniProt A2RUS2)	-0.0755	-0.0306
DEPDC5_O75140_966_ITEGEAHCDIYGDRPR (UniProt O75140)	0.15	0.0134
DDX42_Q86XP3_346_ELCQQIHAECK (UniProt Q86XP3)	0.102	0.0981
DENND4B_O75064_815_VVLPDEVCYR (UniProt O75064)	-0.103	0.154
DDX60L_Q5H9U9_1449_GLFHNLCK (UniProt Q5H9U9)	-0.193	0.241
DENR_O43583_44_VLYCGVCSLPTEYCEYMPDVAK (UniProt O43583)	-0.0798	-0.0802

— the supplement of paper PMC12067093, “Discovery and optimisation of a covalent ligand for TRIM25 and its application to targeted protein ubiquitination” (Chemical Science, 2025)
